Here are results for one compound from US20020068744A1, “Substituted-triazolopyrimidines as anticancer agents” (American Home Products Corporation, priority 2000, published 2002).

Common to all, as to format: cell-based
In experiment [1] the test system is DLD1 human colon adenocarcinoma. Description: MTS cytotoxicity with DLD1 cells. To be noted: DLD-1. The protocol: (§1) For the test procedure, COLO 205 cells were harvested by trypsinization, washed, counted and distributed to wells of 96-well flat-bottom microtiter plates at 1000 cells per well in 100 μl of medium. In addition, one row of wells on an additional plate received cells as above (“time 0” plate). All plates were incubated at 37° in humidified 5% CO2 in air for about 24 hr.
(§2) Compounds were dissolved in DMSO at 10 mg/ml. For each compound, six serial 3-fold dilutions were prepared in medium. The highest drug concentration with cells was 5 μg/ml and the highest DMSO concentration was 0.05%. Drugs were added in duplicate to wells in 100 μl volume. […] The plates were returned to the incubator for three days.
(§3) At the time of drug addition to the experimental plates, the MTS assay was run on the “time 0” plate. This produced the “time 0 MTS value” which was related to the number of viable cells per well at the time of drug addition.
(§4) After three days of culture with test compounds (day 5 overall), the MTS assay was done on all wells of the experimental plates. The results for each plate were calculated separately, using its own controls. The absorbance values of the duplicate sample wells were averaged and divided by the average of the “time 0” values. […]

Experiment [2] has as its system mitoxantrone-resistant S1-M1. Put plainly: MTS cytotoxicity with S1-M1 cells (MXR transporter). The following applies: Homo sapiens. The protocol: as §1, §2, §3
After three days of culture with test compounds (day 5 overall), the MTS assay was done on all wells of the experimental plates. […] The absorbance values of the duplicate sample wells were averaged and divided by the average of the “time 0” values. […] The six values for each compound were plotted against concentration, and the concentration that produced a relative color yield half way between the maximum and minimum was taken as the IC50 value. […]

Experiment [3] relates to colchicine-resistant KB 8.5. Put plainly: MTS cytotoxicity with KB 8.5 cells (moderate P-glycoprotein). The following applies: Homo sapiens. How it is done:
(§5) For the test procedure, COLO 205 cells were harvested by trypsinization, washed, counted and distributed to wells of 96-well flat-bottom microtiter plates at 1000 cells per well in 100 μl of medium. In addition, one row of wells on an additional plate received cells as above (“time 0” plate). […] Compounds were dissolved in DMSO at 10 mg/ml. For each compound, six serial 3-fold dilutions were prepared in medium. The highest drug concentration with cells was 5 μg/ml and the highest DMSO concentration was 0.05%. Drugs were added in duplicate to wells in 100 μl volume. […] The plates were returned to the incubator for three days. At the time of drug addition to the experimental plates, the MTS assay was run on the “time 0” plate. This produced the “time 0 MTS value” which was related to the number of viable cells per well at the time of drug addition. […] After three days of culture with test compounds (day 5 overall), the MTS assay was done on all wells of the experimental plates. […] The absorbance values of the duplicate sample wells were averaged and divided by the average of the “time 0” values. […] The cytotoxicity standard pharmacological test procedure with MTS detection was applied to representative compounds of the invention with the KB human epidermoid carcinoma cell line and two multidrug resistant lines derived from it. […]

Experiment [4] relates to H157 human non-small cell lung carcinoma. Put plainly: MTS cytotoxicity with H157 cells. To be noted: NCI-H157. The protocol:
as §1, §2, §3, §4

Experiment [5] concerns U87MG human glioblastoma. Put plainly: MTS cytotoxicity with U87MG cells. To be noted: U-87 MG. How it is done:
as §1, §2, §3, §4

The subject of experiment [6] is KB human epidermoid carcinoma cell line. Put plainly: MTS cytotoxicity with KB cells. The protocol: as §5

In the case of `COc1cc2c(c(OC)c1OC)-c1ccc(OC)c(=O)cc1[C@@H](NC(C)=O)CC2` [Colchicine, reference compound], the IC50 (commonly the concentration at which inhibition is half-maximal) in experiment [1] amounted to 25 nM; in experiment [2], 47 nM; in experiment [3], 51 nM; in experiment [4], 13 nM; in experiment [5] it was 6.5 nM; in experiment [6], 7.2 nM.
